Test results from PMC4231161.
Results are given in words; binding and its absence hold for the method and conditions named. Binding seen in cells or lysates may run through a third protein. Binding calls can cover weak binding; strength is not graded here. Where a sequence is shown, tags or fusion partners need not be part of it.

What was measured:
[1] = target: T1, KI-GAP45Ty (GAP45 Ty-tagged at the endogenous locus) (Toxoplasma gondii) (UniProt Q7Z289); assay: co-IP; [35S]-methionine/cysteine labelled tachyzoites lysed in CoIP buffer (1% Triton X-100, 50 mM Tris-HCl pH 8, 150 mM NaCl); tagged bait precipitated with monoclonal anti-Ty or anti-Myc and Protein A-Sepharose, 4 C; eluted proteins seen by autoradiography; also in MyoC-KO background and in GAP45-iKO +/- ATc
T1 sequence: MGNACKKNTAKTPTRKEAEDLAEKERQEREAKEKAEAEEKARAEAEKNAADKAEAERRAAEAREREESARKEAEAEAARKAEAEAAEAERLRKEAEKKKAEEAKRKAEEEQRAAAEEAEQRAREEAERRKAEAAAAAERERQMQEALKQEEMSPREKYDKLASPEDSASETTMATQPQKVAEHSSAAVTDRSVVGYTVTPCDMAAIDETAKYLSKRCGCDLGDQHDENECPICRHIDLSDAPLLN

[2] = target: T2, GAP45Ty (second copy of GAP45 with a Ty tag) (Toxoplasma gondii) (UniProt Q7Z289); assay: as above
T2 sequence: T1 sequence

Row | Substance | binding [1] | binding [2]
1 | myosin C (MyoC) | no binding | 
2 | myosin light chain 1 (MLC1) | binds | binds
